According to paper PMC5752508:
Results are given in words; binding and its absence hold for the method and conditions named. Binding seen in cells or lysates may run through a third protein. Some binding calls cover weakened binding; strength is not graded here.

Target: Serine 139-phosphorylated H2AX (γ-H2AX), endogenous in MCF7 cells (human (endogenous in MCF7)) (UniProt P16104)
Experiment: co-IP; IP with anti-γ-H2AX antibody and protein A/G agarose from whole-cell extracts of MCF7 cells treated with etoposide, overnight at 4°C; Western blot

binding: binds
Substance: Pyruvate kinase M2 (PKM2), endogenous in MCF7 cells (from UniProt P14618 1-531) (enzyme)
